In PubChem BioAssay AID272 (DTP/NCI, 2004):
The list is a part of this screen's results and no random one: it gathers tests that were run many times, whatever their T/C, doses with no T/C, and many T/C values between a quarter and a half above the control. Other doses and runs of a compound stand elsewhere. T/C gives the treated animals as a percentage of the vehicle group. Some doses have a count of surviving animals in place of a T/C: the source holds a T/C of zero for them, seemingly a mark for toxic or unscored doses. Some survivor counts are full or nearly so, which does not show that the dose was tolerated: survival well below the control is almost never listed, so the zero probably covers shortened survival too. Survivors were counted at the toxicity check, usually on the fifth day, unless a day is given; later deaths do not show. Schedules are NCI's codes, taken here to give the interval after Q, in days (D) or hours (H), and the number of doses after X. Some doses were run more than once; the values are given in rising order. Where survival is the endpoint, the PubChem record calls one and a half times the control and up active, and a quarter to a half above the control has no call in these data; cut-offs in other NCI protocols can differ. Some T/C values carry the count of animals alive at the toxicity check (mostly the fifth day); where none is given, no animal had died by that day.

Tested on: Lewis lung carcinoma i.m., BDF1 mice, T/C %
Experiment: NCI In Vivo Anticancer Drug Screen. Data for tumor model Lewis Lung Carcinoma (intramuscular) in B6D2F1 (BDF1) mice
How it was run: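 Transplantable tumour model; readout survival or tumour size; value = treated (T) / vehicle control (C).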

[1] = T/C endpoint: median survival time, dose: 2.0 mg/kg/injection, schedule: Q01DX011 (ip), vehicle: saline, higher T/C = longer survival
[2] = T/C endpoint: median survival time, dose: 25.0 mg/kg/injection, schedule: Q01DX011 (ip), vehicle: Klucel (hydroxypropylcellulose) (HPC), higher T/C = longer survival
[3] = T/C endpoint: median survival time, dose: 50.0 mg/kg/injection, schedule: Q01DX011 (ip), vehicle: Klucel (hydroxypropylcellulose) (HPC), higher T/C = longer survival
[4] = T/C endpoint: median survival time, dose: 100.0 mg/kg/injection, schedule: Q01DX011 (ip), vehicle: Klucel (hydroxypropylcellulose) (HPC), higher T/C = longer survival
[5] = T/C endpoint: median survival time, dose: 200.0 mg/kg/injection, schedule: Q01DX011 (ip), vehicle: Klucel (hydroxypropylcellulose) (HPC), higher T/C = longer survival

SMILES: c1ccc2c(c1)ccc1c[n+]3ccccc3cc12
- survivor count (T/C endpoint: mean tumor weight (est.), dose: 1.0 mg/kg/injection, schedule: Q01DX011 (ip), vehicle: saline, higher T/C = larger tumour): 3 of 8
- survivor count (T/C endpoint: median survival time, dose: 0.25 mg/kg/injection, schedule: Q01DX011 (ip), vehicle: saline, higher T/C = longer survival): 6 of 8
- T/C (T/C endpoint: median survival time, dose: 0.5 mg/kg/injection, schedule: Q01DX011 (ip), vehicle: saline, higher T/C = longer survival): 126 % of control
- survivor count (T/C endpoint: median survival time, dose: 1.0 mg/kg/injection, schedule: Q01DX011 (ip), vehicle: saline, higher T/C = longer survival): 3 of 8
- survivor count [1]: 6 of 8

SMILES: CCN(CC)Cc1cc(Nc2c3ccccc3nc3cc(Cl)ccc23)ccc1O
- survivor count (T/C endpoint: mean tumor weight (est.), dose: 8.75 mg/kg/injection, schedule: Q01DX011 (ip), vehicle: saline, higher T/C = larger tumour): 2 of 8
- survivor count (T/C endpoint: mean tumor weight (est.), dose: 17.5 mg/kg/injection, schedule: Q01DX011 (ip), vehicle: saline, higher T/C = larger tumour): 1 of 8

SMILES: CCCCCCCCCCCCCCCC(=O)OCC1OC(n2ccc(N)nc2=O)C(O)C1O (stereo unspecified)
- survivor count (T/C endpoint: mean tumor weight (est.), dose: 100.0 mg/kg/injection, schedule: Q04DX003 (ip), vehicle: saline, higher T/C = larger tumour): 5 of 8
- survivor count (T/C endpoint: mean tumor weight (est.), dose: 300.0 mg/kg/injection, schedule: Q01DX001 (ip), vehicle: saline, higher T/C = larger tumour): 2 of 8
- survivor count (T/C endpoint: mean tumor weight (est.), dose: 600.0 mg/kg/injection, schedule: Q01DX001 (ip), vehicle: saline, higher T/C = larger tumour): 1 of 8
- survivor count (T/C endpoint: median survival time, dose: 7.5 mg/kg/injection, schedule: Q01DX009 (ip), vehicle: saline, higher T/C = longer survival): 7 of 8
- survivor count (T/C endpoint: median survival time, dose: 15.0 mg/kg/injection, schedule: Q01DX009 (ip), vehicle: saline, higher T/C = longer survival): 7 of 8
- T/C (T/C endpoint: median survival time, dose: 25.0 mg/kg/injection, schedule: Q04DX003 (ip), vehicle: saline, higher T/C = longer survival): 141 % of control
- survivor count (T/C endpoint: median survival time, dose: 30.0 mg/kg/injection, schedule: Q01DX009 (ip), vehicle: saline, higher T/C = longer survival): 5 of 8
- survivor count (T/C endpoint: median survival time, dose: 50.0 mg/kg/injection, schedule: Q04DX003 (ip), vehicle: saline, higher T/C = longer survival): 7 of 8
- survivor count (T/C endpoint: median survival time, dose: 60.0 mg/kg/injection, schedule: Q01DX009 (ip), vehicle: saline, higher T/C = longer survival): 0 of 8
- survivor count (T/C endpoint: median survival time, dose: 75.0 mg/kg/injection, schedule: Q01DX001 (ip), vehicle: saline, higher T/C = longer survival): 6 of 8
- survivor count (T/C endpoint: median survival time, dose: 100.0 mg/kg/injection, schedule: Q04DX003 (ip), vehicle: saline, higher T/C = longer survival): 5 of 8
- survivor count (T/C endpoint: median survival time, dose: 120.0 mg/kg/injection, schedule: Q01DX009 (ip), vehicle: saline, higher T/C = longer survival): 0 of 8
- survivor count (T/C endpoint: median survival time, dose: 200.0 mg/kg/injection, schedule: Q04DX003 (ip), vehicle: saline, higher T/C = longer survival): 0 of 8
- survivor count (T/C endpoint: median survival time, dose: 300.0 mg/kg/injection, schedule: Q01DX001 (ip), vehicle: saline, higher T/C = longer survival): 2 of 8
- survivor count (T/C endpoint: median survival time, dose: 400.0 mg/kg/injection, schedule: Q04DX003 (ip), vehicle: saline, higher T/C = longer survival): 0 of 8
- survivor count (T/C endpoint: median survival time, dose: 600.0 mg/kg/injection, schedule: Q01DX001 (ip), vehicle: saline, higher T/C = longer survival): 1 of 8

SMILES: O=c1ccc2nc3ccccc3sc-2c1
- survivor count (T/C endpoint: median survival time, dose: 12.5 mg/kg/injection, schedule: Q01DX011 (ip), vehicle: saline with Tween-80, higher T/C = longer survival): 8 of 8
- survivor count (T/C endpoint: median survival time, dose: 50.0 mg/kg/injection, schedule: Q01DX011 (ip), vehicle: saline with Tween-80, higher T/C = longer survival): 8 of 8
- survivor count (T/C endpoint: median survival time, dose: 100.0 mg/kg/injection, schedule: Q01DX011 (ip), vehicle: saline with Tween-80, higher T/C = longer survival): 7 of 8

SMILES: CNC(=S)N/N=C/C(C)=N/NC(=S)NC
- survivor count (T/C endpoint: median survival time, dose: 0.1 micrograms/kg/injection, schedule: Q01DX011 (ip), vehicle: saline with Tween-80, higher T/C = longer survival): 1 of 8

SMILES: O=C(CBr)c1ccc(I)cc1
- survivor count (T/C endpoint: median survival time, dose: 20.0 mg/kg/injection, schedule: Q01DX011 (ip), vehicle: saline with Tween-80, higher T/C = longer survival): 5 of 8

SMILES: CCCCCCCCCCCC(c1ccccc1)[N+](C)(C)Cc1ccccc1 (stereo unspecified)
- survivor count (T/C endpoint: mean tumor weight (est.), dose: 2.0 mg/kg/injection, schedule: Q01DX011 (ip), vehicle: saline, higher T/C = larger tumour): 2 of 8
- survivor count [1]: 2 of 8
- survivor count (T/C endpoint: median survival time, dose: 4.0 mg/kg/injection, schedule: Q01DX011 (ip), vehicle: saline, higher T/C = longer survival): 0 of 8

SMILES: CS(=O)(=O)OCCCCOS(C)(=O)=O
- survivor count (T/C endpoint: mean tumor weight, dose: 50.0 mg/kg/injection, schedule: Q01DX011 (ip), vehicle: Klucel (hydroxypropylcellulose) (HPC), higher T/C = larger tumour): 2 of 8
- survivor count [2]: 6 of 8
- survivor count [3]: 0 of 10 and 2 of 8
- survivor count [4]: 0 of 10 and 0 of 8
- survivor count [5]: 0 of 10 and 0 of 8
- survivor count (T/C endpoint: median survival time, dose: 400.0 mg/kg/injection, schedule: Q01DX011 (ip), vehicle: Klucel (hydroxypropylcellulose) (HPC), higher T/C = longer survival): 0 of 10
- survivor count (T/C endpoint: median survival time, dose: 800.0 mg/kg/injection, schedule: Q01DX011 (ip), vehicle: Klucel (hydroxypropylcellulose) (HPC), higher T/C = longer survival): 0 of 10

SMILES: CCn1cnc2c(=S)nc[nH]c21
- survivor count (T/C endpoint: mean tumor weight (est.), dose: 1.56 mg/kg/injection, schedule: Q01DX011 (ip), vehicle: Klucel (hydroxypropylcellulose) (HPC), higher T/C = larger tumour): 4 of 8
- survivor count (T/C endpoint: mean tumor weight (est.), dose: 3.12 mg/kg/injection, schedule: Q01DX011 (ip), vehicle: Klucel (hydroxypropylcellulose) (HPC), higher T/C = larger tumour): 5 of 8
- survivor count (T/C endpoint: mean tumor weight (est.), dose: 12.5 mg/kg/injection, schedule: Q01DX011 (ip), vehicle: Klucel (hydroxypropylcellulose) (HPC), higher T/C = larger tumour): 4 of 8
- survivor count (T/C endpoint: mean tumor weight, dose: 3.12 mg/kg/injection, schedule: Q01DX011 (ip), vehicle: steroid suspending solution, higher T/C = larger tumour): 2 of 8
- survivor count (T/C endpoint: mean tumor weight, dose: 12.5 mg/kg/injection, schedule: Q01DX011 (ip), vehicle: steroid suspending solution, higher T/C = larger tumour): 4 of 8
- survivor count (T/C endpoint: mean tumor weight, dose: 25.0 mg/kg/injection, schedule: Q01DX011 (ip), vehicle: Klucel (hydroxypropylcellulose) (HPC), higher T/C = larger tumour): 3 of 8
- survivor count (T/C endpoint: mean tumor weight, dose: 25.0 mg/kg/injection, schedule: Q01DX011 (ip), vehicle: steroid suspending solution, higher T/C = larger tumour): 5 of 8
- survivor count (T/C endpoint: median survival time, dose: 0.78 mg/kg/injection, schedule: Q01DX011 (ip), vehicle: Klucel (hydroxypropylcellulose) (HPC), higher T/C = longer survival): 8 of 8
- survivor count (T/C endpoint: median survival time, dose: 1.56 mg/kg/injection, schedule: Q01DX011 (ip), vehicle: Klucel (hydroxypropylcellulose) (HPC), higher T/C = longer survival): 4 of 8
- T/C (T/C endpoint: median survival time, dose: 1.56 mg/kg/injection, schedule: Q01DX011 (ip), vehicle: steroid suspending solution, higher T/C = longer survival): 129 % of control [7 of 8 alive]
- survivor count (T/C endpoint: median survival time, dose: 3.12 mg/kg/injection, schedule: Q01DX011 (ip), vehicle: Klucel (hydroxypropylcellulose) (HPC), higher T/C = longer survival): 5 of 8
- survivor count (T/C endpoint: median survival time, dose: 3.12 mg/kg/injection, schedule: Q01DX011 (ip), vehicle: steroid suspending solution, higher T/C = longer survival): 2 of 8
- T/C (T/C endpoint: median survival time, dose: 6.25 mg/kg/injection, schedule: Q01DX011 (ip), vehicle: steroid suspending solution, higher T/C = longer survival): 145 % of control [6 of 8 alive]
- survivor count (T/C endpoint: median survival time, dose: 12.5 mg/kg/injection, schedule: Q01DX011 (ip), vehicle: Klucel (hydroxypropylcellulose) (HPC), higher T/C = longer survival): 4 of 8
- survivor count (T/C endpoint: median survival time, dose: 12.5 mg/kg/injection, schedule: Q01DX011 (ip), vehicle: steroid suspending solution, higher T/C = longer survival): 4 of 8
- survivor count [2]: 3 of 8
- survivor count (T/C endpoint: median survival time, dose: 25.0 mg/kg/injection, schedule: Q01DX011 (ip), vehicle: steroid suspending solution, higher T/C = longer survival): 5 of 8
- survivor count [3]: 0 of 8
- survivor count [4]: 0 of 8
- survivor count [5]: 0 of 8

SMILES: CCCCCCCCCCCCn1c(C)nc2ccccc21
- survivor count (T/C endpoint: median survival time, dose: 2.5 mg/kg/injection, schedule: Q01DX011 (ip), vehicle: saline, higher T/C = longer survival): 0 of 8
- survivor count (T/C endpoint: median survival time, dose: 5.0 mg/kg/injection, schedule: Q01DX011 (ip), vehicle: saline, higher T/C = longer survival): 0 of 8

SMILES: CN(N=O)C(=O)N[C@@H](C=O)[C@@H](O)[C@H](O)[C@H](O)CO
- survivor count (T/C endpoint: mean tumor weight, dose: 100.0 mg/kg/injection, schedule: Q01DX011 (ip), vehicle: saline, higher T/C = larger tumour): 4 of 8
- survivor count (T/C endpoint: median survival time, dose: 100.0 mg/kg/injection, schedule: Q01DX011 (ip), vehicle: saline, higher T/C = longer survival): 4 of 8
- survivor count (T/C endpoint: median survival time, dose: 200.0 mg/kg/injection, schedule: Q01DX011 (ip), vehicle: saline, higher T/C = longer survival): 0 of 8
- survivor count (T/C endpoint: median survival time, dose: 400.0 mg/kg/injection, schedule: Q01DX011 (ip), vehicle: saline, higher T/C = longer survival): 0 of 8
- survivor count (T/C endpoint: median survival time, dose: 800.0 mg/kg/injection, schedule: Q01DX011 (ip), vehicle: saline, higher T/C = longer survival): 0 of 8

SMILES: CC(=O)Nc1cc(F)c([N+](=O)[O-])cc1[N+](=O)[O-]
- T/C (T/C endpoint: median survival time, dose: 0.63 mg/kg/injection, schedule: Q01DX011 (ip), vehicle: saline with Tween-80, higher T/C = longer survival): 128 % of control
